This passage reports binding results from publication PMC6372715.

By UniProt entry, the sequences of proteins in these tests, tags left out. Where a name states a change or a piece, a line headed by the entry shows the natural chain unless it says otherwise.
UniProt Q9UQC2: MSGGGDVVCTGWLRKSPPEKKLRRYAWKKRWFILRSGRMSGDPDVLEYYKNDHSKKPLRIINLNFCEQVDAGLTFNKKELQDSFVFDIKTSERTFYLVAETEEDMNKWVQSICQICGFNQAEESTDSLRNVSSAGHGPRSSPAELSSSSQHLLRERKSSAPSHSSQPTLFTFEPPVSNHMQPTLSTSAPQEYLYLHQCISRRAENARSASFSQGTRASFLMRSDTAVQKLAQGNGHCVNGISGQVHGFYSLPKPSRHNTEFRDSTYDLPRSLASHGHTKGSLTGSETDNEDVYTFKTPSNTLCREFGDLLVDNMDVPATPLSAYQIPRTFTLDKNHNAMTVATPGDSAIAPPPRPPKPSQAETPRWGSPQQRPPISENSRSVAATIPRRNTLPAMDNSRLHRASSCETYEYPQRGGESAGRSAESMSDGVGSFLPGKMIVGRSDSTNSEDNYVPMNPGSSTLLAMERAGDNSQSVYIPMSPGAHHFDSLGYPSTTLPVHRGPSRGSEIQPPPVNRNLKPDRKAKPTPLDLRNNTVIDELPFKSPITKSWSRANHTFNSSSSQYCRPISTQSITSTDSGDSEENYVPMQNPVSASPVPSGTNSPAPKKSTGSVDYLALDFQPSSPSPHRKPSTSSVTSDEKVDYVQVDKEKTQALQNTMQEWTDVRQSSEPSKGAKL
UniProt P40763: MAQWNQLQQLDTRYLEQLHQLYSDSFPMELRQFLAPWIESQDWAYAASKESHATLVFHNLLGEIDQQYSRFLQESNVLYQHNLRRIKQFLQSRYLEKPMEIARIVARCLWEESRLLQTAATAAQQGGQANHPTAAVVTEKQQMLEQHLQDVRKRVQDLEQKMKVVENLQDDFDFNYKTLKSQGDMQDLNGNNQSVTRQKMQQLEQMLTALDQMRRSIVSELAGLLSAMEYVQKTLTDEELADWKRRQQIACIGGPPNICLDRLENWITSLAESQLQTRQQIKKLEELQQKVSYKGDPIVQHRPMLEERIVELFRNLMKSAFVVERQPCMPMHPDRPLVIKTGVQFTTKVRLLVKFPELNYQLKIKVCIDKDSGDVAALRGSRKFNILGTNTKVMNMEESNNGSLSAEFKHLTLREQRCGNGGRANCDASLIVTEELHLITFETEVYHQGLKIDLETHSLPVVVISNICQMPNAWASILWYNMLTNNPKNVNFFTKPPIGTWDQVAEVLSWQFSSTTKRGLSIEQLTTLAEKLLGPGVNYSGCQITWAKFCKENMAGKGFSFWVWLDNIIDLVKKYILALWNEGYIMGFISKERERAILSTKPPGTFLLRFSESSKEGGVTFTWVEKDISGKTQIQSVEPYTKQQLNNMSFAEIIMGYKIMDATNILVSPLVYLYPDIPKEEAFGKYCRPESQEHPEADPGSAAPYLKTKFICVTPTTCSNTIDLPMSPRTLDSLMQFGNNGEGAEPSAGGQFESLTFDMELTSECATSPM

No constants are given. Whether binding was seen depends on the method and setting. Binding seen in cells or lysates may run through a third protein. Some binding calls cover weakened binding; strength is not graded here.

Test [1] addresses p110α catalytic subunit of PI3K (human (endogenous in OAW28)) (UniProt P42336). The experiment in a line: co-IP; IP of p110α from OAW28 cells transfected with PIK3R1 siRNA or controls; western blotting. A general note: In western blotting, separated proteins are transferred to a membrane and probed.
Test [2] addresses HA-tagged Gab2 S623A mutant (UniProt Q9UQC2). Nature of the test: co-IP; IP with HA antibody from OVCAR5 cells transfected with HA-tagged wild-type GAB2 or GAB2 S623A; empty vector as control; western blotting.
Test [3] deals with HA-tagged wild-type Gab2 (UniProt Q9UQC2). The description is as above.
For test [4], the target named is Grb2-associated binder 2 (Gab2) (human (endogenous in SKOV3 and OAW28)) (UniProt Q9UQC2). The experiment in a line: proximity ligation; Duolink PLA in fixed, permeabilised SKOV3 cells transfected with PIK3R1 siRNA or controls; pairs of primary antibodies; spots per nucleus counted.
Test [5] shares this target. The experiment in a line: co-IP; IP with Gab2 antibody from total lysates of SKOV3 cells (PIK3R1 siRNA or controls; in Fig. 6d with or without PTEN overexpression plasmid); IP lysis buffer 50 mM Tris, 150 mM NaCl, 0.5% NP-40, 5 mM EDTA; protein A/G agarose; western blotting.

Regarding “EGFR (from UniProt P00533 25-1210) (receptor)”, in test [1], the binding result is listed as “binds”.
Still for that read-out and setting: the same measure for “Grb2-associated binder 2 (Gab2) (from UniProt Q9UQC2 1-676)”: “binds”.
As to STAT3 (from UniProt P40763 1-770), the binding result in test [2], in test [3], in test [4] and in test [5] was “binds” each time.
